Measurements as given in publication PMC10272136, “Molecular mechanisms of Holliday junction branch migration catalyzed by an asymmetric RuvB hexamer” (Nature Communications, 2022).
The exact form of at least one protein or probe is not confirmed. At least one verdict was read from the data and is not stated in words by the source. For part of these data: Protein sequences can lack the tags named with them.

Legend:
RuvB + RuvA = experiment: gel filtration; conditions: 2 mM ATPgS, 10 mM MgCl2, RuvB:RuvA:HJ 6:4:1, no useful cryo-EM dataset of ternary complex, 20 mM Tris-HCl pH 7.5, 10 mM MgCl2, 1 mM DTT, 30 min at 37 C, gel filtration in 20 mM Tris-HCl, 150 mM NaCl, recombinant protein, folded or branched DNA
RuvB = target: T1, RuvB (UniProt Q5SL87); experiment: cryo-EM structure; conditions: 2 mM ATPgS, 10 mM MgCl2, single hexamer on dsDNA part (>20 bp seen), protomers A-D contact DNA, E and F do not, 20 mM Tris-HCl pH 7.5, 10 mM MgCl2, 1 mM DTT, 30 min at 37 C, gel filtration in 20 mM Tris-HCl, 150 mM NaCl, recombinant protein, protein details: N-terminal His tag (pET-28a, NdeI/SalI), folded or branched DNA
T1 sequence (looked up, limits assumed): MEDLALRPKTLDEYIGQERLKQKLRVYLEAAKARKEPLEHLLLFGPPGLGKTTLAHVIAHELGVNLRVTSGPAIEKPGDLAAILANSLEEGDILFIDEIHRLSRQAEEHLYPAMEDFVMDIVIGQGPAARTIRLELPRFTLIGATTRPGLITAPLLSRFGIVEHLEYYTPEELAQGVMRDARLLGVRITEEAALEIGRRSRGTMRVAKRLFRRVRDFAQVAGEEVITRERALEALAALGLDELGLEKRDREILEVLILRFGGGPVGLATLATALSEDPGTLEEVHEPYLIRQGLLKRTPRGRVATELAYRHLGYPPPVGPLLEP

RuvB double hexamer = target: T2, RuvB double hexamer (UniProt Q5SL87); experiment: cryo-EM structure; conditions: 2 mM ATPgS, 10 mM MgCl2, double hexamer on dsDNA part, 20 mM Tris-HCl pH 7.5, 10 mM MgCl2, 1 mM DTT, 30 min at 37 C, gel filtration in 20 mM Tris-HCl, 150 mM NaCl, recombinant protein, protein details: N-terminal His tag (pET-28a, NdeI/SalI), folded or branched DNA
T2 sequence (looked up, limits assumed): T1 sequence (looked up, limits assumed)

Measured: binding result

AGAATCTGCCGAGAGACCGAGCAGAATTCTATGTGTTTACCAAGCGCTG / CAGCGCTTGGTAAACACATAGAATTCTGCTCGGTCTGAGCCGTCTAAGA / TCTTAGACGGCTCACTGGCTGTGGGATCCGAGCTGTCTAGAGACATCGA / TCGATGTCTCTAGACAGCTCGGATCCCACAGCCAGTCTCGGCAGATTCT [HJ DNA (HJ1-HJ4)]
binds: all assays above
